Test [1] concerns the target CmBBX19-YFP^N (Chrysanthemum morifolium). The test is described as follows: split reporter; BiFC with YFP^N and YFP^C fusions co-infiltrated by A. tumefaciens GV3101 into N. benthamiana leaves; YFP fluorescence by confocal microscopy 60 h after infiltration.
For test [2], the target named is BD-CmBBX19 (Chrysanthemum morifolium). Kind of test: two-hybrid; Matchmaker GAL4 system, yeast strain Y2HGold; bait in pGBKT7 (BD), prey in pGADT7 (AD); growth on SD/-Trp-Leu, then spot assay on SD/-Trp-Leu-His-Ade.

These are yes or no findings as the source states them, for the method shown. For some assays here: Binding seen in cells or lysates may run through a third protein. For some assays here: Where a sequence is shown, tags or fusion partners need not be part of it.

This note sets out measurements from PMC7496117, “A zinc finger protein BBX19 interacts with ABF3 to affect drought tolerance negatively in chrysanthemum”.

B1: AtABF3 (BiFC construct) (protein, UniProt Q9M7Q3 1-454)
chain: MGSRLNFKSFVDGVSEQQPTVGTSLPLTRQNSVFSLTFDEFQNSWGGGIGKDFGSMNMDELLKNIWTAEESHSMMGNNTSYTNISNGNSGNTVINGGGNNIGGLAVGVGGESGGFFTGGSLQRQGSLTLPRTISQKRVDDVWKELMKEDDIGNGVVNGGTSGIPQRQQTLGEMTLEEFLVRAGVVREEPQPVESVTNFNGGFYGFGSNGGLGTASNGFVANQPQDLSGNGVAVRQDLLTAQTQPLQMQQPQMVQQPQMVQQPQQLIQTQERPFPKQTTIAFSNTVDVVNRSQPATQCQEVKPSILGIHNHPMNNNLLQAVDFKTGVTVAAVSPGSQMSPDLTPKSALDASLSPVPYMFGRVRKTGAVLEKVIERRQKRMIKNRESAARSRARKQAYTMELEAEIAQLKELNEELQKKQVEIMEKQKNQLLEPLRQPWGMGCKRQCLRRTLTGPW
Take B1: the binding result in test [1] is reported as “no binding”.

B2: AtABF3 (AD fusion) (protein, UniProt Q9M7Q3 1-454)
chain: MGSRLNFKSFVDGVSEQQPTVGTSLPLTRQNSVFSLTFDEFQNSWGGGIGKDFGSMNMDELLKNIWTAEESHSMMGNNTSYTNISNGNSGNTVINGGGNNIGGLAVGVGGESGGFFTGGSLQRQGSLTLPRTISQKRVDDVWKELMKEDDIGNGVVNGGTSGIPQRQQTLGEMTLEEFLVRAGVVREEPQPVESVTNFNGGFYGFGSNGGLGTASNGFVANQPQDLSGNGVAVRQDLLTAQTQPLQMQQPQMVQQPQMVQQPQQLIQTQERPFPKQTTIAFSNTVDVVNRSQPATQCQEVKPSILGIHNHPMNNNLLQAVDFKTGVTVAAVSPGSQMSPDLTPKSALDASLSPVPYMFGRVRKTGAVLEKVIERRQKRMIKNRESAARSRARKQAYTMELEAEIAQLKELNEELQKKQVEIMEKQKNQLLEPLRQPWGMGCKRQCLRRTLTGPW
For the molecule B2, in test [2], the binding result is reported as “no binding”.
